From doi:10.1101/2021.07.06.451223 (bioRxiv, 2021) come the findings set out here.

What all share (assay): FRET or BRET
In general terms: Bioluminescence resonance energy transfer reports proximity on the nanometre scale.

Assay [1] addresses CASQ1-GFP (CASQ1 amino acids 1-396 with C-terminal GFP) (human) (UniProt P31415).
For assay [2], the target named is ssGFP-CASQ1 (CASQ1 amino acids 1-396 with EGFP between residues 49 and 50) (human) (UniProt P31415).
For assay [3], the target named is ssGFP-CASQ1 S248/369E (human) (UniProt P31415).

These are yes or no findings as the source states them, for the method shown. In cells and extracts the contact can be indirect. Some entries that bind do so weakly or less than the wild type.

For the substance “CASQ1-GFP (CASQ1 amino acids 1-396 with C-terminal GFP) (from UniProt P31415 35-396)”, the binding entry in assay [1] is on record as “binds”. On to “ssGFP-CASQ1 (CASQ1 amino acids 1-396 with EGFP between residues 49 and 50) (from UniProt P31415 35-396)”, for which the binding result in assay [2] is listed as “binds”. On to “ssGFP-CASQ1 S248/369E (from UniProt P31415 35-396)”, for which the binding result in assay [3] is reported as “binds”.
